The other results are listed elsewhere or left out.
Assays:
Test in all cases: log2 fold change, soluble protein after heating vs DMSO (PISA); higher = thermal stabilisation; K562 lysate, 10 uM; active = over 0.2 and 3.5 SD of the protein, either way, in both replicates (recomputed)
alvocidib = compound: CN1CC[C@H](c2c(O)cc(O)c3c(=O)cc(-c4ccccc4Cl)oc23)[C@H](O)C1 [alvocidib]
Outline: (§1)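 Dounce homogenisation of K562 pellets in PBS pH 7.4 with 1 mM MgCl2 produced a crude extract, used at 1 mg/mL protein. Exposure to 10 μM compound lasted 30 min, and aliquots were then heated for 3 min across 48°C-58°C, pooled and brought to 0.5% NP-40 at 4°C. The supernatant after 21,000xg for 90 min was quantified by TMTpro 16plex LC-MS/MS with channel sums equalised. Duplicate values are given as log-two fold change in thermal stability relative to solvent controls.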

Protein sequences, listed by entry. Tags and fused reporters are not part of them. Lines headed by an entry give the natural chain unless they say otherwise; changes in a name come on top.
UniProt Q96J42: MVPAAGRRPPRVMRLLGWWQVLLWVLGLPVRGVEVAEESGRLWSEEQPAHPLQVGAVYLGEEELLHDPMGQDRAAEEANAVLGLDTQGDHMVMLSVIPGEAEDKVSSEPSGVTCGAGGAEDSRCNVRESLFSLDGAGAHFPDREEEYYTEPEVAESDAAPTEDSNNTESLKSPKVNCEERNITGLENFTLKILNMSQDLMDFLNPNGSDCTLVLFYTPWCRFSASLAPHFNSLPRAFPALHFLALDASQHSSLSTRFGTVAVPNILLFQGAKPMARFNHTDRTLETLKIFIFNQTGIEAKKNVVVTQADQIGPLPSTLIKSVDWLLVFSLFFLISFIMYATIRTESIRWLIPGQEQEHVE
UniProt Q9Y5K5, whole entry, looked up: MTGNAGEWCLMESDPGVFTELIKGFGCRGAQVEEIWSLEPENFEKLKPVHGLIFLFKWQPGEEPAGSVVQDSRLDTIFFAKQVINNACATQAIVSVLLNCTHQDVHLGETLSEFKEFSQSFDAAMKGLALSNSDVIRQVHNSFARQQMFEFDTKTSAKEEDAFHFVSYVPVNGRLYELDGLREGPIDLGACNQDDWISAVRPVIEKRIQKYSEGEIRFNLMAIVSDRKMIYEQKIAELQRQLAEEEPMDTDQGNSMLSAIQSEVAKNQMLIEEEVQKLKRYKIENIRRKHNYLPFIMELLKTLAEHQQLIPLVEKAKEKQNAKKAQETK
UniProt P51965: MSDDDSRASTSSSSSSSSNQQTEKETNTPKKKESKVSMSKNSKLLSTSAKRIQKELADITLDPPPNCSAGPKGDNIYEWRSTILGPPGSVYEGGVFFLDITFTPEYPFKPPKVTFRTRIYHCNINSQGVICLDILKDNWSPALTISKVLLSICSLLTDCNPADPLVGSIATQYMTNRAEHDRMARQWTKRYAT
UniProt Q6IBS0: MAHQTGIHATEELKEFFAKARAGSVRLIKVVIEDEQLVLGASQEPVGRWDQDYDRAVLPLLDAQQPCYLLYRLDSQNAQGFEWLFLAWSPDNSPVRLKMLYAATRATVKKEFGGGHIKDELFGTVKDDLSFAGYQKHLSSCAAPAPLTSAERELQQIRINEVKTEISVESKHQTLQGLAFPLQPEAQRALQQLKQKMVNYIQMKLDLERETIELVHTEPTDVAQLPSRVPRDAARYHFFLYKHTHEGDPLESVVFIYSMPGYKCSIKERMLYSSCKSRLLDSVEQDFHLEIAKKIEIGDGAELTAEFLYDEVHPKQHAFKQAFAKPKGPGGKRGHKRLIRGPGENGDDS
UniProt Q969M7: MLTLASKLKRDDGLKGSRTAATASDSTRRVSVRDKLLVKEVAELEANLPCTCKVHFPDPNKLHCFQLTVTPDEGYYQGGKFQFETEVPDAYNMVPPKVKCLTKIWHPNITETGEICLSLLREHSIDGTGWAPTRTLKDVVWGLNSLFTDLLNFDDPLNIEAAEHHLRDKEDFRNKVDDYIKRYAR
UniProt Q7Z7E8: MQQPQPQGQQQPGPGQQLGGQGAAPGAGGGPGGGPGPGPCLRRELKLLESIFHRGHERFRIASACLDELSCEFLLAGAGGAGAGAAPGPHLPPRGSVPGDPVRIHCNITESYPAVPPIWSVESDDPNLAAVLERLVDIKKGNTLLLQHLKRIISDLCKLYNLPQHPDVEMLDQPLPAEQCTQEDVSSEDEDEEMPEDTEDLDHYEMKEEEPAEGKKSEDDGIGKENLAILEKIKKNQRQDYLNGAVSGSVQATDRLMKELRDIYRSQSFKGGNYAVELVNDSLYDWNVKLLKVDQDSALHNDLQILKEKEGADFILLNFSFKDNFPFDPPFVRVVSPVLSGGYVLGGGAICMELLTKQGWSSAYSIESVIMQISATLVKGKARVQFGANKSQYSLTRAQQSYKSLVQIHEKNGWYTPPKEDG
UniProt P68371, whole entry, looked up: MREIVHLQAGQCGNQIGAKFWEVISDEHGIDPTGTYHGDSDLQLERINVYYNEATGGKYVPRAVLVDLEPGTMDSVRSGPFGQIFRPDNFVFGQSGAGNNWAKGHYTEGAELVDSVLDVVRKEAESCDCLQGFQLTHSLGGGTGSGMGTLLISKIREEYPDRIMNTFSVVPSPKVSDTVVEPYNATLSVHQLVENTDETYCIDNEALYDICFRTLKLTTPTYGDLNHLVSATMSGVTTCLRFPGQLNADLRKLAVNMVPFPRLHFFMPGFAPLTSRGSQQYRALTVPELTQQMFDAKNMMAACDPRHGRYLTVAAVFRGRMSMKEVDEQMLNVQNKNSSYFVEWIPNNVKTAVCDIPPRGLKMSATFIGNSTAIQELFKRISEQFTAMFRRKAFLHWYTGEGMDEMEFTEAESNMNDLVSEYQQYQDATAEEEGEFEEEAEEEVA
UniProt Q7Z6J8: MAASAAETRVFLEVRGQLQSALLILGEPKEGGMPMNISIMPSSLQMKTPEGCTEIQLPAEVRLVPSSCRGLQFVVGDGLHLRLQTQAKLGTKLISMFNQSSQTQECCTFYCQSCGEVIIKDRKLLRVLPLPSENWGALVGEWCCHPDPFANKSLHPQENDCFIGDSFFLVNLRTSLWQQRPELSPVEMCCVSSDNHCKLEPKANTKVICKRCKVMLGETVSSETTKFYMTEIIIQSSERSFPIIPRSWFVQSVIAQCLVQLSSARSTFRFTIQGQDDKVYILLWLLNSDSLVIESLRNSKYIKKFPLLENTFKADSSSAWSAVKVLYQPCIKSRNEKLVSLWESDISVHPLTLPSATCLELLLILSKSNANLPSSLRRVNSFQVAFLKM
UniProt Q9C0C9: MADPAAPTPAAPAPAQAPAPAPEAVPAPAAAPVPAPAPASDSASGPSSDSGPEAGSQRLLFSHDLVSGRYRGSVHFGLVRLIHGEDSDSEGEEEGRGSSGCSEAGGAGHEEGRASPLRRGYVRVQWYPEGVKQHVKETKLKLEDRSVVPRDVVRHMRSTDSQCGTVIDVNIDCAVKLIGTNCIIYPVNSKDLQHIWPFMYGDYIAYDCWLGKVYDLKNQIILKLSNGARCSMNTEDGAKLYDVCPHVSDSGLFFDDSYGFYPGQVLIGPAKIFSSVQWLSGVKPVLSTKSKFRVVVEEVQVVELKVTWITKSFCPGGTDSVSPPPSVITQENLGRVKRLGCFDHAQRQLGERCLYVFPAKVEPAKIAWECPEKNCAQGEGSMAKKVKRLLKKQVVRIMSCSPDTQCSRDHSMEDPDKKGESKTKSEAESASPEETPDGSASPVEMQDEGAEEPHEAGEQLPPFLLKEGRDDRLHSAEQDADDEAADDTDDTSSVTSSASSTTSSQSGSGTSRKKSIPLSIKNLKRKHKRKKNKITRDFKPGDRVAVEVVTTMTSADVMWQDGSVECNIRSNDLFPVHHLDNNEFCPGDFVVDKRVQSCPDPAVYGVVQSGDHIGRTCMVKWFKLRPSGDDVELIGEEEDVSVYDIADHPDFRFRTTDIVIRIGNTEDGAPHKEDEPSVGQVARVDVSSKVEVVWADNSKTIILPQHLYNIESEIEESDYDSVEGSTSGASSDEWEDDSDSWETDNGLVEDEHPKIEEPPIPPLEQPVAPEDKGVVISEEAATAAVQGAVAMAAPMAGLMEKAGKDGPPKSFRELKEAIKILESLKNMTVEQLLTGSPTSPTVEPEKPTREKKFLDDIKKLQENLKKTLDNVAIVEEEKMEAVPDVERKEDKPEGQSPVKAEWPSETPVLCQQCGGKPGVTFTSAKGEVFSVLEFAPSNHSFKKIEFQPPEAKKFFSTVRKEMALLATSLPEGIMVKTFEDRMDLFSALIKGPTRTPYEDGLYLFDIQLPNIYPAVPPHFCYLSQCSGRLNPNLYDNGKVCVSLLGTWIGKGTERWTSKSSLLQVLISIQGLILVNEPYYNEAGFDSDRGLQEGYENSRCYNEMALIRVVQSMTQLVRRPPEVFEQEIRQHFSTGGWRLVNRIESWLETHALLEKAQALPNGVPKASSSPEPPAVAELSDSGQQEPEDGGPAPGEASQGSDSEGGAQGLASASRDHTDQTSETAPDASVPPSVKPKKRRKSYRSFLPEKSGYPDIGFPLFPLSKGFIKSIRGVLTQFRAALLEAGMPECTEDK
UniProt P83876: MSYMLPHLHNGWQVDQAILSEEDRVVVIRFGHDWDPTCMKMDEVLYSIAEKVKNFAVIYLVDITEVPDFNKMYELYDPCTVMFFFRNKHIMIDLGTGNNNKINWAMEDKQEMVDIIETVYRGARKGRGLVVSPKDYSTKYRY
UniProt Q6IPR3: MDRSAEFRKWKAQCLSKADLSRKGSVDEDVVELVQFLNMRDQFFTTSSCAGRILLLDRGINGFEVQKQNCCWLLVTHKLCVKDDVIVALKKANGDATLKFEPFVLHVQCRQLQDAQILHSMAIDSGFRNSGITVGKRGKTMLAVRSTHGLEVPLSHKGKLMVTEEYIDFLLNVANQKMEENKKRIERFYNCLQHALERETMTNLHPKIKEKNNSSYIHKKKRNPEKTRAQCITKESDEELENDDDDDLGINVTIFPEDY
UniProt P63146, whole entry, looked up: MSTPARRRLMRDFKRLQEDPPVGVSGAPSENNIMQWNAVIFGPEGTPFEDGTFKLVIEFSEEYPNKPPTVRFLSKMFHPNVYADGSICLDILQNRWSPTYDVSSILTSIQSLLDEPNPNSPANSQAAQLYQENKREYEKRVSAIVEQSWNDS
UniProt P15374: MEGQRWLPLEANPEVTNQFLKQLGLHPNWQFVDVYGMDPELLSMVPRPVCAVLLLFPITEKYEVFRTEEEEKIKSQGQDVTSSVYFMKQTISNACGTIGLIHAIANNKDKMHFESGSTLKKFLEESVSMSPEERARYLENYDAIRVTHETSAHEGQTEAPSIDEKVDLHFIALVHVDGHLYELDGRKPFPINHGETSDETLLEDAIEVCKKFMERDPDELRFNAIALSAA
UniProt P10599: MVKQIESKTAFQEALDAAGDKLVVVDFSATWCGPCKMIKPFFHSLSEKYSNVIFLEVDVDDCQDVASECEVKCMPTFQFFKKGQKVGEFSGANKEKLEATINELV

Tubastatin A = compound: CN1CCc2c(c3ccccc3n2Cc2ccc(C(=O)NO)cc2)C1 [Tubastatin A]
Outline: as §1

[1] = compound: CNC(=O)C1=CC=CC=C1NC2=NC(=NC=C2Cl)NC3=C(C=C(C=C3)N4CCOCC4)OC
Outline: as §1

defactinib = compound: CNC(=O)c1ccc(Nc2ncc(C(F)(F)F)c(NCc3nccnc3N(C)S(C)(=O)=O)n2)cc1 [defactinib]
Outline: as §1

[2] = compound: CNc1nc(-c2ccc3c(N)n[nH]c3c2)cc(N2C[C@@H](C(=O)NC3CCCCC3)CC[C@H]2C)n1
Outline: as §1

encorafenib = compound: COC(=O)N[C@@H](C)CNc1nccc(-c2cn(C(C)C)nc2-c2cc(Cl)cc(NS(C)(=O)=O)c2F)n1 [encorafenib]
Outline: as §1

[3] = compound: COC(=O)[C@H](CCSC)NC(=O)C1=C(C=C(C=C1)NC[C@H](CS)N)C2=CC=CC=C2
Outline: as §1

alisertib = compound: COc1cc(Nc2ncc3c(n2)-c2ccc(Cl)cc2C(c2c(F)cccc2OC)=NC3)ccc1C(=O)O [alisertib]
Outline: as §1

[4] = compound: COc1cc2nc(-c3cc(F)ccc3O)nc(N[C@@H]3CNC[C@H]3C(C)(C)O)c2cc1OC
Outline: as §1

gefitinib = compound: COc1cc2ncnc(Nc3ccc(F)c(Cl)c3)c2cc1OCCCN1CCOCC1 [gefitinib]
Outline: as §1

lapatinib = compound: CS(=O)(=O)CCNCc1ccc(-c2ccc3ncnc(Nc4ccc(OCc5cccc(F)c5)c(Cl)c4)c3c2)o1 [lapatinib]
Outline: as §1

pictilisib = compound: CS(=O)(=O)N1CCN(Cc2cc3nc(-c4cccc5[nH]ncc45)nc(N4CCOCC4)c3s2)CC1 [pictilisib]
Outline: as §1

crizotinib = compound: C[C@@H](Oc1cc(-c2cnn(C3CCNCC3)c2)cnc1N)c1c(Cl)ccc(F)c1Cl [crizotinib]
Outline: as §1

[5] = compound: C[C@H](C1=CC=C(C=C1)C(=O)NC2=C3C=CNC3=NC=C2)N
Outline: as §1

duvelisib = compound: C[C@H](Nc1ncnc2nc[nH]c12)c1cc2cccc(Cl)c2c(=O)n1-c1ccccc1 [duvelisib]
Outline: as §1

gandotinib = compound: Cc1cc(Nc2cc(CN3CCOCC3)c3nc(C)c(Cc4ccc(Cl)cc4F)n3n2)n[nH]1 [gandotinib]
Outline: as §1

tozasertib = compound: Cc1cc(Nc2cc(N3CCN(C)CC3)nc(Sc3ccc(NC(=O)C4CC4)cc3)n2)n[nH]1 [tozasertib]
Outline: as §1

doramapimod = compound: Cc1ccc(-n2nc(C(C)(C)C)cc2NC(=O)Nc2ccc(OCCN3CCOCC3)c3ccccc23)cc1 [doramapimod]
Outline: as §1

bafetinib = compound: Cc1ccc(NC(=O)c2ccc(CN3CC[C@H](N(C)C)C3)c(C(F)(F)F)c2)cc1Nc1nccc(-c2cncnc2)n1 [bafetinib]
Outline: as §1

[6] = compound: Cc1cccc(CC(=O)N2CCc3c2ccc(-c2cn(C)c4ncnc(N)c24)c3F)n1
Outline: as §1

Measured: log2 fold change

TXNDC15 (UniProt Q96J42)
inactive: alvocidib -0.009 | Tubastatin A 0.043 | [1] -0.015 | defactinib 0.095 | [2] 0.021 | encorafenib 0.075 | [3] -0.034 | alisertib 0.012 | [4] -0.018 | gefitinib -0.019 | lapatinib -0.009 | pictilisib -0.021 | crizotinib 0.048 | [5] 0.014 | duvelisib 0.047 | gandotinib -0.012 | tozasertib 0.027 | doramapimod 0.001 | bafetinib -0.071 | [6] -0.003

UCHL5 isoform 3 (UniProt Q9Y5K5)
inactive: alvocidib -0.009 | Tubastatin A -0.063 | [1] 0.008 | defactinib -0.024 | [2] -0.011 | encorafenib -0.004 | [3] 0.088 | alisertib -0.026 | [4] -0.012 | gefitinib -0.014 | lapatinib 0.042 | pictilisib -0.029 | crizotinib 0.022 | [5] 0.121 | duvelisib -0.01 | gandotinib -0.044 | tozasertib -0.007 | doramapimod -0.015 | bafetinib -0.019 | [6] -0.02

UBE2E1 (UniProt P51965)
inactive: alvocidib 0.046 | Tubastatin A -0.07 | [1] 0.018 | defactinib 0.057 | [2] 0.312 | encorafenib -0.03 | [3] -0.022 | alisertib -0.032 | [4] -0.106 | gefitinib -0.087 | lapatinib -0.024 | pictilisib -0.04 | crizotinib 0.203 | [5] 0.097 | duvelisib -0.02 | gandotinib -0.066 | tozasertib -0.01 | doramapimod -0.08 | bafetinib 0.057 | [6] -0.043

TWF2 (UniProt Q6IBS0)
inactive: alvocidib -0.034 | Tubastatin A 0.031 | [1] -0.016 | defactinib 0.015 | [2] 0.031 | encorafenib -0.023 | [3] -0.017 | alisertib -0.009 | [4] 0 | gefitinib -0.015 | lapatinib -0.008 | pictilisib -0.052 | crizotinib 0.042 | [5] -0.073 | duvelisib -0.003 | gandotinib 0.034 | tozasertib -0.025 | doramapimod -0.032 | bafetinib -0.006 | [6] 0.07

UBE2F isoform 2 (UniProt Q969M7)
inactive: alvocidib -0.022 | Tubastatin A -0.049 | [1] -0.009 | defactinib 0.101 | [2] -0.051 | encorafenib -0.075 | [3] -0.044 | alisertib -0.071 | [4] 0.012 | gefitinib 0.061 | lapatinib -0.011 | pictilisib -0.014 | crizotinib 0.021 | [5] 0.045 | duvelisib -0.016 | gandotinib -0.001 | tozasertib -0.049 | doramapimod -0.034 | bafetinib 0.149 | [6] -0.07

UBE2Q1 (UniProt Q7Z7E8)
inactive: alvocidib -0.021 | Tubastatin A -0.013 | [1] 0.039 | defactinib -0.01 | [2] 0.02 | encorafenib 0.013 | [3] -0.039 | alisertib -0.018 | [4] 0.017 | gefitinib 0.023 | lapatinib -0.003 | pictilisib 0.011 | crizotinib 0.016 | [5] -0.022 | duvelisib 0.025 | gandotinib 0.013 | tozasertib 0.006 | doramapimod 0.004 | bafetinib -0.064 | [6] 0.013

TUBB4B (UniProt P68371)
inactive: alvocidib 0.032 | Tubastatin A -0.017 | [1] 0.024 | defactinib 0.018 | [2] -0.039 | encorafenib -0.03 | [3] 0.067 | alisertib 0.019 | [4] -0.013 | gefitinib -0.028 | lapatinib 0.027 | pictilisib 0.017 | crizotinib -0.027 | [5] 0.053 | duvelisib -0.029 | gandotinib 0.004 | tozasertib 0.011 | doramapimod -0.024 | bafetinib 0.027 | [6] -0.043

UBE3D (UniProt Q7Z6J8)
inactive: alvocidib -0.06 | Tubastatin A 0.017 | [1] -0.013 | defactinib -0.008 | [2] 0.105 | encorafenib 0.03 | [3] -0.031 | alisertib 0.02 | [4] -0.043 | gefitinib 0.002 | lapatinib 0.052 | pictilisib 0.003 | crizotinib -0.026 | [5] -0.092 | duvelisib 0.072 | gandotinib 0.084 | tozasertib 0.019 | doramapimod -0.011 | bafetinib 0.011 | [6] 0.004

Copied from the entries so far (4 entries):
TWF2 (UniProt Q6IBS0)
inactive: alvocidib -0.034 | Tubastatin A 0.031 | [1] -0.016 | defactinib 0.015 | [2] 0.031 | encorafenib -0.023 | [3] -0.017 | alisertib -0.009 | [4] 0 | gefitinib -0.015 | lapatinib -0.008 | pictilisib -0.052 | crizotinib 0.042 | [5] -0.073 | duvelisib -0.003 | gandotinib 0.034 | tozasertib -0.025 | doramapimod -0.032 | bafetinib -0.006 | [6] 0.07

UBE2F isoform 2 (UniProt Q969M7)
inactive: alvocidib -0.022 | Tubastatin A -0.049 | [1] -0.009 | defactinib 0.101 | [2] -0.051 | encorafenib -0.075 | [3] -0.044 | alisertib -0.071 | [4] 0.012 | gefitinib 0.061 | lapatinib -0.011 | pictilisib -0.014 | crizotinib 0.021 | [5] 0.045 | duvelisib -0.016 | gandotinib -0.001 | tozasertib -0.049 | doramapimod -0.034 | bafetinib 0.149 | [6] -0.07

UBE2Q1 (UniProt Q7Z7E8)
inactive: alvocidib -0.021 | Tubastatin A -0.013 | [1] 0.039 | defactinib -0.01 | [2] 0.02 | encorafenib 0.013 | [3] -0.039 | alisertib -0.018 | [4] 0.017 | gefitinib 0.023 | lapatinib -0.003 | pictilisib 0.011 | crizotinib 0.016 | [5] -0.022 | duvelisib 0.025 | gandotinib 0.013 | tozasertib 0.006 | doramapimod 0.004 | bafetinib -0.064 | [6] 0.013

TUBB4B (UniProt P68371)
inactive: alvocidib 0.032 | Tubastatin A -0.017 | [1] 0.024 | defactinib 0.018 | [2] -0.039 | encorafenib -0.03 | [3] 0.067 | alisertib 0.019 | [4] -0.013 | gefitinib -0.028 | lapatinib 0.027 | pictilisib 0.017 | crizotinib -0.027 | [5] 0.053 | duvelisib -0.029 | gandotinib 0.004 | tozasertib 0.011 | doramapimod -0.024 | bafetinib 0.027 | [6] -0.043

Remaining list, next part.

UBE2O (UniProt Q9C0C9)
inactive: alvocidib -0.048 | Tubastatin A 0.016 | [1] 0.019 | defactinib -0.006 | [2] 0.131 | encorafenib -0.009 | [3] 0.012 | alisertib -0.03 | [4] 0.006 | gefitinib -0.003 | lapatinib -0.011 | pictilisib -0.009 | crizotinib -0.022 | [5] -0.079 | duvelisib 0.021 | gandotinib 0.127 | tozasertib -0.008 | doramapimod 0.007 | bafetinib -0.005 | [6] 0.122

TXNL4A (UniProt P83876)
inactive: alvocidib -0.09 | Tubastatin A 0.02 | [1] -0.035 | defactinib -0.017 | [2] 0.027 | encorafenib -0.016 | [3] -0.051 | alisertib 0.012 | [4] 0.045 | gefitinib 0.012 | lapatinib -0.032 | pictilisib 0.023 | crizotinib -0.02 | [5] -0.161 | duvelisib -0.012 | gandotinib 0.004 | tozasertib 0.005 | doramapimod 0.013 | bafetinib 0.042 | [6] 0.018

TUFM (UniProt P49411)
inactive: alvocidib 0.051 | Tubastatin A -0.08 | [1] 0.007 | defactinib -0.008 | [2] -0.039 | encorafenib -0.033 | [3] 0.139 | alisertib 0.02 | [4] -0.02 | gefitinib -0.03 | lapatinib -0.006 | pictilisib 0.025 | crizotinib -0.038 | [5] 0.05 | duvelisib 0.004 | gandotinib -0.073 | tozasertib 0.009 | doramapimod 0.012 | bafetinib -0.016 | [6] -0.055

TYW3 (UniProt Q6IPR3)
inactive: alvocidib -0.033 | Tubastatin A 0.014 | [1] -0.007 | defactinib -0.021 | [2] 0.061 | encorafenib 0.027 | [3] -0.064 | alisertib -0.03 | [4] 0.019 | gefitinib 0.01 | lapatinib -0.014 | pictilisib 0.008 | crizotinib -0.022 | [5] -0.144 | duvelisib 0.018 | gandotinib 0.1 | tozasertib 0 | doramapimod 0.054 | bafetinib 0.051 | [6] 0.176

TUBGCP6 (UniProt Q96RT7)
inactive: alvocidib -0.005 | Tubastatin A -0.196 | [1] 0.027 | defactinib -0.239 | [2] 0.057 | encorafenib -0.047 | [3] 0.071 | alisertib -0.099 | [4] 0.107 | gefitinib 0.039 | lapatinib -0.047 | pictilisib -0.096 | crizotinib 0.036 | [5] -0.175 | duvelisib -0.115 | gandotinib 0.393 | tozasertib 0.102 | doramapimod -0.066 | bafetinib -0.028 | [6] 0.367

UBE2B (UniProt P63146)
inactive: alvocidib 0.002 | Tubastatin A 0.034 | [1] 0.011 | defactinib 0.03 | [2] 0.032 | encorafenib 0.036 | [3] 0.005 | alisertib -0.03 | [4] -0.008 | gefitinib -0.029 | lapatinib -0.008 | pictilisib -0.031 | crizotinib 0.024 | [5] 0.028 | duvelisib -0.033 | gandotinib 0.009 | tozasertib -0.005 | doramapimod -0.011 | bafetinib -0.013 | [6] -0.025

UCHL3 (UniProt P15374)
inactive: alvocidib 0.014 | Tubastatin A -0.004 | [1] -0.017 | defactinib 0.042 | [2] -0.108 | encorafenib 0.007 | [3] -0.027 | alisertib 0.029 | [4] -0.004 | gefitinib -0.019 | lapatinib 0.011 | pictilisib 0.015 | crizotinib 0.055 | [5] -0.05 | duvelisib 0.023 | gandotinib -0.016 | tozasertib 0 | doramapimod -0.005 | bafetinib 0.066 | [6] 0.009

TXN (UniProt P10599)
inactive: alvocidib -0.005 | Tubastatin A 0.051 | [1] -0.034 | defactinib 0.034 | [2] -0.003 | encorafenib -0.024 | [3] -0.045 | alisertib 0.005 | [4] -0.001 | gefitinib 0.002 | lapatinib 0.024 | pictilisib 0.055 | crizotinib 0.042 | [5] 0.083 | duvelisib 0.024 | gandotinib -0.005 | tozasertib -0.009 | doramapimod -0.043 | bafetinib 0.14 | [6] -0.041
